Reference: article PMC6971206
These are yes or no findings as the source states them, for the method shown. In cells and extracts the contact can be indirect. Some entries that bind do so weakly or less than the wild type. Tags and fused reporters may be left off the sequences shown.

T1: Cox6FLAG, cytochrome c oxidase subunit Cox6 with FLAG-tag (S. cerevisiae) (UniProt P00427)
T1 sequence: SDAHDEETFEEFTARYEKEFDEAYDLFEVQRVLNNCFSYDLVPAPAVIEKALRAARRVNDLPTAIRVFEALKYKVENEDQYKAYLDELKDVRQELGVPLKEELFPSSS

T2: Cox3, cytochrome c oxidase subunit (S. cerevisiae (endogenous in BY4741 mitochondria)) (UniProt P00420)
T2 sequence: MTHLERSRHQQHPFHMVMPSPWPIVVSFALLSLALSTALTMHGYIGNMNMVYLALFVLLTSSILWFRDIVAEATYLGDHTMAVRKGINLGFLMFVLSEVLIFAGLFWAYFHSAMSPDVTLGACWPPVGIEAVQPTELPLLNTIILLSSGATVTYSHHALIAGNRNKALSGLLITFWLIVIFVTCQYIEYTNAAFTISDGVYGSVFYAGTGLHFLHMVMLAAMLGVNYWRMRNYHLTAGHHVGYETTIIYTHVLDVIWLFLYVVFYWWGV


Key:
[1] = target: T1, Cox6FLAG, cytochrome c oxidase subunit Cox6 with FLAG-tag (S. cerevisiae); experiment: co-IP; purification via FLAG-tag on Rcf1, Rcf2 or Cox6 from mitochondria solubilised in 2% digitonin (cells grown in YPG, 30°C, logarithmic phase), endogenous expression levels; Western blot
[2] = target: T2, Cox3, cytochrome c oxidase subunit (S. cerevisiae (endogenous in BY4741 mitochondria)); experiment: cross-linking; isolated mitochondria in isotonic buffer (0.6 M sorbitol, 20 mM HEPES pH 7.4) with 200 μM crosslink reagent (SMPB; also BMH in Figure 6C) for 30 min at 30°C, DMSO as control; SDS-PAGE, Western blot and immuno decoration
[3] = target: Rcf1FLAG, full-length Rcf1 with FLAG-tag (S. cerevisiae) (UniProt Q03713); experiment: as above

Binder	binding [1]	binding [2]	binding [3]
Rcf1 (respiratory supercomplex factor 1) (protein, UniProt Q03713 1-159) MSRMPSSFDVTERDLDDMTFGERIIYHCKKQPLVPIGCLLTTGAVILAAQNVRLGNKWKAQYYFRWRVGLQAATLVALVAGSFIYGTSGKELKAKEEQLKEKAKMREKLWIQELERREEETEARRKRAELARMKTLENEEEIKNLEKELSDLENKLGKK	binds	–	–
Rcf2 (respiratory supercomplex factor 2) (protein, UniProt P53721 1-224) MKILTQDEIEAHRSHTLKGGIEGALAGFAISAIIFKVLPRRYPKFKPSTLTWSIKTALWITPPTVLTAICAEEASNNFDATMYGSGSSSEDALDEHRRWKSLSTKDKFVEGLSNNKYKIITGAWAASLYGSWVIVNKDPIMTKAQKIVQARMYAQFITVGLLLASVGLSMYENKLHPNKQKVNEMRRWENALRVAEEEERLEKEGRRTGYVSNEERINSKIFKS	binds	–	–
Rcf1FLAG, full-length Rcf1 with FLAG-tag (protein, UniProt Q03713 1-159) MSRMPSSFDVTERDLDDMTFGERIIYHCKKQPLVPIGCLLTTGAVILAAQNVRLGNKWKAQYYFRWRVGLQAATLVALVAGSFIYGTSGKELKAKEEQLKEKAKMREKLWIQELERREEETEARRKRAELARMKTLENEEEIKNLEKELSDLENKLGKK	–	binds	no binding
Rcf1ΔC, conserved Hig-domain of Rcf1 without the C-terminus, FLAG-tagged (domain or fragment, UniProt Q03713 1-95) MSRMPSSFDVTERDLDDMTFGERIIYHCKKQPLVPIGCLLTTGAVILAAQNVRLGNKWKAQYYFRWRVGLQAATLVALVAGSFIYGTSGKELKAK	–	binds	–
